Reference: PubChem BioAssay AID720505 (Drosophila RNAi Screening Center, 2013)
Assay: 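Fly regulators or components of the CRAC channel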 (primary screen). Cell system: Drosophila S2R+ cells. Reagents: long dsRNA against Drosophila genes. Challenge: thapsigargin (2 µM) in calcium-free buffer to empty internal stores, then 2 mM calcium added back. Measured: 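Fluo-4 signal in 384-well plates read on a FLIPR after thapsigargin (2 µM, calcium-free) store depletion and 2 mM calcium add-back; unnormalised mean endpoint per well; screen run twice, selected wells retested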. Direction: calcium signal: higher = more calcium entry after store depletion. Hit rule: 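About 1500 genes called as lowering calcium entry, by varying amounts, judged against per-plate control wells with STIM1 as positive and Rho1 as negative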. Meaning of the calls: active = called as lowering calcium entry; inactive = not called.
In all, the deposit lists about 20,000 reagents; this is an unselected part of those that have a named target and a result. Over the whole deposit, about 2,100 (10%) are marked active. 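Raw plate signals without normalisation; calls rest on control-based scores that were not deposited; replicate 2 separates called from uncalled poorly.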 Names joined by + are all predicted targets of the reagent. Not given: the amount of reagent, the time to read-out.

{"target":"CG3568 (GeneID 31383)","dsRNA":"DRSC18312","calcium signal, replicate 1":177,"calcium signal, replicate 2":120,"call":"inactive"}
{"target":"CG15765 (GeneID 31513)","dsRNA":"DRSC18071","calcium signal, replicate 1":113,"calcium signal, replicate 2":93.9,"call":"inactive"}
{"target":"CG15765 (GeneID 31513)","dsRNA":"DRSC23026","calcium signal, replicate 1":101,"calcium signal, replicate 2":160,"call":"inactive"}
{"target":"CG15909 (GeneID 35572)","dsRNA":"DRSC04977","calcium signal, replicate 1":139,"calcium signal, replicate 2":169,"call":"inactive"}
{"target":"CG43980 (GeneID 2768995)","dsRNA":"DRSC11646","calcium signal, replicate 1":122,"calcium signal, replicate 2":143,"call":"inactive"}
{"target":"CG43980 (GeneID 2768995)","dsRNA":"DRSC22923","calcium signal, replicate 1":119,"calcium signal, replicate 2":131,"call":"inactive"}
{"target":"hbt + CG43779","dsRNA":"DRSC02503","calcium signal, replicate 1":35.6,"calcium signal, replicate 2":74.2,"call":"active"}
{"target":"hbt + CG43779","dsRNA":"DRSC23270","calcium signal, replicate 1":80.4,"calcium signal, replicate 2":175,"call":"inactive"}
{"target":"CG4267 (GeneID 33405)","dsRNA":"DRSC00102","calcium signal, replicate 1":81.2,"calcium signal, replicate 2":93.2,"call":"inactive"}
{"target":"CG4267 (GeneID 33405)","dsRNA":"DRSC00647","calcium signal, replicate 1":115,"calcium signal, replicate 2":151,"call":"inactive"}
{"target":"Ssl (GeneID 37909)","dsRNA":"DRSC04657","calcium signal, replicate 1":179,"calcium signal, replicate 2":204,"call":"inactive"}
{"target":"CG17163 (GeneID 3354988)","dsRNA":"DRSC20901","calcium signal, replicate 1":71.8,"calcium signal, replicate 2":155,"call":"active"}
{"target":"nAChRbeta3 (GeneID 33228)","dsRNA":"DRSC00325","calcium signal, replicate 1":123,"calcium signal, replicate 2":162,"call":"inactive"}
{"target":"CG14079 (GeneID 40086)","dsRNA":"DRSC10083","calcium signal, replicate 1":71,"calcium signal, replicate 2":145,"call":"active"}

No new results follow: 4 of the entries above.
{"target":"CG43980 (GeneID 2768995)","dsRNA":"DRSC11646","calcium signal, replicate 1":122,"calcium signal, replicate 2":143,"call":"inactive"}
{"target":"CG43980 (GeneID 2768995)","dsRNA":"DRSC22923","calcium signal, replicate 1":119,"calcium signal, replicate 2":131,"call":"inactive"}
{"target":"hbt + CG43779","dsRNA":"DRSC02503","calcium signal, replicate 1":35.6,"calcium signal, replicate 2":74.2,"call":"active"}
{"target":"hbt + CG43779","dsRNA":"DRSC23270","calcium signal, replicate 1":80.4,"calcium signal, replicate 2":175,"call":"inactive"}

The list goes on.
{"target":"CG12061 (GeneID 3354990)","dsRNA":"DRSC20715","calcium signal, replicate 1":191,"calcium signal, replicate 2":103,"call":"inactive"}
{"target":"AIMP2 (GeneID 39690)","dsRNA":"DRSC09877","calcium signal, replicate 1":138,"calcium signal, replicate 2":87.8,"call":"inactive"}
{"target":"Or35a (GeneID 34918)","dsRNA":"DRSC03389","calcium signal, replicate 1":134,"calcium signal, replicate 2":162,"call":"inactive"}
{"target":"asRNA:CR43470 + CG14830","dsRNA":"DRSC10200","calcium signal, replicate 1":71.7,"calcium signal, replicate 2":29.4,"call":"inactive"}
{"target":"CG14109 (GeneID 39512)","dsRNA":"DRSC10112","calcium signal, replicate 1":106,"calcium signal, replicate 2":136,"call":"inactive"}
{"target":"ktub (GeneID 37400)","dsRNA":"DRSC04551","calcium signal, replicate 1":157,"calcium signal, replicate 2":132,"call":"inactive"}
{"target":"CG5402 (GeneID 43306)","dsRNA":"DRSC15792","calcium signal, replicate 1":56.7,"calcium signal, replicate 2":104,"call":"active"}
{"target":"Piezo (GeneID 34112)","dsRNA":"DRSC03092","calcium signal, replicate 1":136,"calcium signal, replicate 2":256,"call":"inactive"}
{"target":"Piezo (GeneID 34112)","dsRNA":"DRSC03391","calcium signal, replicate 1":152,"calcium signal, replicate 2":148,"call":"inactive"}
{"target":"eca (GeneID 41177)","dsRNA":"DRSC22290","calcium signal, replicate 1":75.6,"calcium signal, replicate 2":158,"call":"inactive"}
{"target":"Arl1 (GeneID 39745)","dsRNA":"DRSC09667","calcium signal, replicate 1":110,"calcium signal, replicate 2":174,"call":"inactive"}
{"target":"Gmppb (GeneID 40599)","dsRNA":"DRSC12169","calcium signal, replicate 1":99.8,"calcium signal, replicate 2":136,"call":"inactive"}
{"target":"l(2)37Cd (GeneID 35193)","dsRNA":"DRSC02069","calcium signal, replicate 1":48.1,"calcium signal, replicate 2":165,"call":"active"}
{"target":"CG9951 (GeneID 39888)","dsRNA":"DRSC11105","calcium signal, replicate 1":101,"calcium signal, replicate 2":98.7,"call":"inactive"}
{"target":"CG12817 + CG12420","dsRNA":"DRSC22814","calcium signal, replicate 1":110,"calcium signal, replicate 2":80.3,"call":"inactive"}
{"target":"lncRNA:CR42862 (GeneID 10178964)","dsRNA":"DRSC08348","calcium signal, replicate 1":143,"calcium signal, replicate 2":91.5,"call":"inactive"}
{"target":"Sxl (GeneID 3772180)","dsRNA":"DRSC18721","calcium signal, replicate 1":119,"calcium signal, replicate 2":98.7,"call":"inactive"}
{"target":"Sxl (GeneID 3772180)","dsRNA":"DRSC18722","calcium signal, replicate 1":215,"calcium signal, replicate 2":179,"call":"inactive"}
{"target":"Sxl (GeneID 3772180)","dsRNA":"DRSC21490","calcium signal, replicate 1":149,"calcium signal, replicate 2":88.5,"call":"inactive"}
{"target":"CG7384 (GeneID 34447)","dsRNA":"DRSC03053","calcium signal, replicate 1":91.8,"calcium signal, replicate 2":92.1,"call":"inactive"}
{"target":"mRpL52 (GeneID 35711)","dsRNA":"DRSC06585","calcium signal, replicate 1":119,"calcium signal, replicate 2":182,"call":"inactive"}
